Data as given in PubChem BioAssay AID1259405 (NCATS, 2018).

Screen: 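Mouse-designed siRNAs used to find CHO productivity engineering targets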 (primary screen)
System: Chinese hamster CHO-K1 ovary cells with stable secreted eGFP expression
Reagents: single siRNA against mouse genes, 0.8 pmol siRNA per well (2 µl of 400 nM stock)
Timing: 3 days
Detection: 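Percent of the per-plate non-targeting control median for intracellular GFP per well by laser scanning cytometry and for cell viability by ATP luminescence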
Direction: GFP, % of control: higher = more GFP per well, higher productivity; viability (ATP), % of control: higher = more viable cells (more ATP)
Active means: 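a knock-down is called active if GFP reaches 120% or more of non-targeting control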
In all, the deposit lists about 50,000 reagents; below is a part drawn at random. In the full data, about 4,000 (8%) are marked active. 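Mouse siRNA library applied to hamster cells; one well for each siRNA.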 Unmarked entries are inactive. The numbers tell different reagents against one gene apart.

Target gene | siRNA no. | GFP, % of control | viability (ATP), % of control
Krtap13-20 | 1 | 65.5 | 66.3
Krtap13-20 | 2 | 83.2 | 57
Krtap13-20 | 3 | 67.9 | 88.1
Cyp2j5 | 1 | 43.7 | 81.9
Cyp2j5 | 2 | 71 | 85.7
Cyp2j5 | 3 | 102 | 91.3
Myh9 | 1 | 32.2 | 49.7
Myh9 | 2 | 59 | 58.6
Anapc2 | 1 | 41.3 | 49.2
Anapc2 | 2 | 84.7 | 101
Anapc2 | 3 | 93.4 | 138
D8Ertd738e | 1 | 77 | 82.9
D8Ertd738e | 2 | 145 (active) | 109
D8Ertd738e | 3 | 136 (active) | 89.7
Lrrn1 | 1 | 55.7 | 81.2
Lrrn1 | 2 | 96.1 | 90.6
Lrrn1 | 3 | 92.2 | 89.6
Or8b47 | 1 | 90.1 | 61.3
Or8b47 | 2 | 49.7 | 79.1
Or8b47 | 3 | 88.9 | 90
Myb | 1 | 65.3 | 60.4
Myb | 2 | 53.4 | 49.7
Myb | 3 | 84.8 | 97
Eras | 1 | 123 (active) | 155
Eras | 2 | 40.4 | 46.3
Eras | 3 | 96.6 | 74.5
Or5af1 | 1 | 61.1 | 48.6
Or5af1 | 2 | 51.2 | 58.3
Or5af1 | 3 | 83.8 | 65.5
Polrmt | 1 | 123 (active) | 81.7
Polrmt | 2 | 89.1 | 101
Trhr2 | 1 | 63.7 | 65.7
Trhr2 | 2 | 75.5 | 76.2
Trhr2 | 3 | 87.8 | 86.5
Tmeff1 | 1 | 56.8 | 44
Tmeff1 | 2 | 69.1 | 48.9
Tmeff1 | 3 | 81.9 | 69.8
H2al2a | 1 | 95.4 | 102
H2al2a | 2 | 88.9 | 81
H2al2a | 3 | 71.6 | 68.4
Inhbe | 1 | 32.3 | 48
Inhbe | 2 | 58.9 | 66.2
Inhbe | 3 | 95.1 | 77.1
Mis12 | 1 | 64.7 | 53
Mis12 | 2 | 42.3 | 73.3
Mis12 | 3 | 65.3 | 60.2
Cd209c | 1 | 98.1 | 68.4
Cd209c | 2 | 26.9 | 50.2
Cd209c | 3 | 34.6 | 24.8
Zfp950 | 1 | 21.2 | 15.2
Zfp950 | 2 | 112 | 130
Zfp950 | 3 | 85.9 | 99.5
Eps8l2 | 1 | 94.7 | 51.2
Eps8l2 | 2 | 95.7 | 71.1
Zp1 | 1 | 74 | 74.8
Zp1 | 2 | 77.1 | 81.3
Zp1 | 3 | 109 | 81.4

Records listed so far whose target name begins with E or e:
Target gene | siRNA no. | GFP, % of control | viability (ATP), % of control
Eras | 1 | 123 (active) | 155
Eras | 2 | 40.4 | 46.3
Eras | 3 | 96.6 | 74.5
Eps8l2 | 1 | 94.7 | 51.2
Eps8l2 | 2 | 95.7 | 71.1

Additional records follow:
Target gene | siRNA no. | GFP, % of control | viability (ATP), % of control
AI661453 | 1 | 62.1 | 87.3
AI661453 | 2 | 93.9 | 88.1
AI661453 | 3 | 46.8 | 72.5
Zfp566 | 1 | 84.6 | 91.9
Zfp566 | 2 | 105 | 51.4
Zfp566 | 3 | 70.9 | 93.1
Dhrs2 | 1 | 32.8 | 35.4
Dhrs2 | 2 | 76.9 | 83
Dhrs2 | 3 | 114 | 72
Ptdss1 | 1 | 53.5 | 90.6
Ptdss1 | 2 | 62.8 | 96
Ptdss1 | 3 | 76.1 | 81.8
Dicer1 | 1 | 55.8 | 52
Dicer1 | 2 | 86.7 | 82.8
Dicer1 | 3 | 72 | 73.7
Nkx2-3 | 1 | 83.6 | 95.3
Nkx2-3 | 2 | 117 | 61.7
Nkx2-3 | 3 | 85.7 | 75.3
Ca10 | 1 | 106 | 110
Ca10 | 2 | 107 | 97
Hnrnpf | 1 | 63.4 | 51.8
Hnrnpf | 2 | 111 | 88.9
Hnrnpf | 3 | 112 | 85.7
Prr5 | 1 | 46.8 | 57.4
Prr5 | 2 | 63.7 | 84.3
Prr5 | 3 | 207 (active) | 112
Ugt2a3 | 1 | 70.5 | 81.1
Ugt2a3 | 2 | 63.5 | 89.6
Ugt2a3 | 3 | 53.3 | 67.4
Ankrd13c | 1 | 134 (active) | 84.8
Ankrd13c | 2 | 65.2 | 78.3
Ankrd13c | 3 | 60.9 | 50.7
Sephs2 | 1 | 96.1 | 95.6
Sephs2 | 2 | 108 | 147
Sephs2 | 3 | 73.2 | 84.3
Gpr27 | 1 | 144 (active) | 44.9
Gpr27 | 2 | 95.4 | 92.2
Gpr27 | 3 | 110 | 76.5
Sh3glb2 | 1 | 94.9 | 89.5
Sh3glb2 | 2 | 107 | 43
Sh3glb2 | 3 | 67.1 | 74.7
Gcnt3 | 1 | 99.8 | 134
Gcnt3 | 2 | 72.9 | 154
Gcnt3 | 3 | 70.2 | 95.3
Klf10 | 1 | 42.6 | 37.1
Klf10 | 2 | 96.2 | 99.2
Klf10 | 3 | 73.4 | 75.9
Or51ai2 | 1 | 111 | 42.1
Or51ai2 | 2 | 79.3 | 61
Or51ai2 | 3 | 86.5 | 72
